Laboratory results from PubChem BioAssay AID493014 (National Center for Advancing Translational Sciences (NCATS), 2011).
This is one part of the list. These are further read-outs of the screen, such as a control signal, another cell line or another target. No call is given for them. Compounds called inactive in the main read-out are mostly missing here. The note in brackets gives the kind of curve behind each potency; many fits are weak.

Assay: qHTS Assay to Find Inhibitors of Chronic Active B-Cell Receptor Signaling
Conditions: ABC-DLBCL IkBa-CBG/CBR reporter, luminescence ratio (green luciferase fused to IkBa over red control in TMD8 lymphoma cells), 4 h
Method in brief: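 Concentration-response series (up to 46 uM) were applied to TMD8 dual-reporter cells for 4 h at 37C with doxycycline. Green/red ratio, after filter-overlap correction, defined %Activity; red signal alone was normalised to basal cells and zero luminescence.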

[1] = measured here: CBR red luminescence, cell number
[2] = measured here: IkBa-CBG green luminescence

| Structure (SMILES) | AC50 [1] | AC50 [2] |
| --- | --- | --- |
| Cc1ccc(N=CC2=C(O)CC(C)(C)CC2=O)nc1 | 0.517 µM [rising, full curve, poor fit] | – |
| CCOc1c(Nc2ccc(C(C)C)cc2)c(=O)c1=O | 11.2 µM [rising, partial curve, poor fit] | – |
| O=C(Cn1nc(CNc2ccc(Cl)cc2)[n+]2c1CCCCC2)c1ccc(Cl)cc1 | 2.59 µM [rising, full curve, poor fit] | – |
| Cc1ccc(S(=O)(=O)N2CCN(C(=O)CN3C(=O)NC(C)(c4ccc(Cl)cc4)C3=O)CC2)c(C)c1 (centres undefined) | 1.84 µM [rising, partial curve] | – |
| O=C(CCNC(=O)c1ccccc1Cl)NCCC1=CCCCC1 | 18.4 µM [rising, single point] | – |
| CCNc1nc(NCC)n2c(SCC(=O)Nc3cccc(F)c3)nnc2n1 | 32.6 µM [falling, single point] | – |
| O=C(Cn1nc(C(F)F)cc1C(F)F)NNC(=S)Nc1ccc([N+](=O)[O-])cc1 | 10 µM [rising, partial curve, poor fit] | – |
| O=C(Nc1ccnc(-c2cccnc2)n1)c1ccc(Cl)c(Cl)c1 | 3.16 µM [rising, single point] | – |
| CCN(C(=O)c1cn(C)c(=O)c2cc(OC)c(OC)cc12)c1ccccc1C | 29.1 µM [falling, single point] | – |
| COc1cc(SC)ccc1C(=O)Nc1ncc(C)s1 | 2.24 µM [falling, full curve, poor fit] | – |
| O=C(Nc1ccccc1)c1cccc(N2C(=O)C3C4CC(C(Br)C4Br)C3C2=O)c1 (centres undefined) | 22.4 µM [falling, single point] | – |
| COCCCn1c(C(=O)NCCN2CCOCC2)cc2c(=O)n3ccccc3nc21 | 14.1 µM [falling, partial curve] | – |
| CCOC(=O)c1ccc2c(c1)nc(SCc1cn3ccsc3n1)n2CC | 11.2 µM [falling, partial curve, poor fit] | – |
| COc1ccc(/C=C/c2ccncc2)cc1 | 0.631 µM [rising, full curve, poor fit] | – |
| Cc1cc(N)ccc1N=Nc1c(C)n(C)n(-c2ccccc2)c1=O | 14.6 µM [rising, single point] | – |
| CS(=O)(=O)N1CCCC(C(=O)c2cccc(Cl)c2)C1 (centres undefined) | 3.16 µM [rising, partial curve, poor fit] | – |
| O=C(N/N=C/c1ccccn1)c1sc2ccccc2c1Cl | 3.16 µM [rising, full curve, poor fit] | 10 µM [falling, partial curve, poor fit] |
| CCc1ccc2c(CN(CC)Cc3nc4ccccc4c(=O)[nH]3)cc(=O)oc2c1 | 2.91 µM [falling, partial curve, poor fit] | 3.26 µM [rising, partial curve, poor fit] |
| COc1ccc(-c2csc(NC(=O)CN3C(=O)NC4(CCCC4)C3=O)n2)cc1 | 1.84 µM [falling, full curve] | – |
| CCCCc1nnc(SCC(=O)Nc2nccs2)n1C | 15.8 µM [falling, partial curve, poor fit] | – |
| COc1ccc2c(c1OC)C(=O)OC2C1c2c(cc3c(c2OC)OCO3)CCN1C (centres undefined) | 4.11 µM [rising, full curve, poor fit] | – |

Entries listed so far that have fluorine:

| Structure (SMILES) | AC50 [1] | AC50 [2] |
| --- | --- | --- |
| CCNc1nc(NCC)n2c(SCC(=O)Nc3cccc(F)c3)nnc2n1 | 32.6 µM [falling, single point] | – |
| O=C(Cn1nc(C(F)F)cc1C(F)F)NNC(=S)Nc1ccc([N+](=O)[O-])cc1 | 10 µM [rising, partial curve, poor fit] | – |

Later entries

| Structure (SMILES) | AC50 [1] | AC50 [2] |
| --- | --- | --- |
| COc1ccc(OC)c(NC(=O)c2nc3ccccc3s2)c1 | 35.5 µM [rising, partial curve, poor fit] | – |
| CC(=O)Nc1ccc(NC(=O)CCCSc2nc3ccccc3s2)cc1 | 0.0891 µM [rising, full curve, poor fit] | – |
| CCOc1cc(CNc2ccc3c(c2)OCCO3)cc(Br)c1OCC | 12.6 µM [rising, partial curve] | 12.6 µM [falling, partial curve] |
| CN1CCN(C(c2ccccn2)c2cc(Cl)c3cccnc3c2O)CC1 (centres undefined) | – | 3.98 µM [falling, full curve] |
| CCC(=O)Nc1nnc(CCc2ccccc2)s1 | 16.4 µM [falling, single point] | – |
| COc1nc(Nc2ccc(O)cc2)nc(OC(C(F)(F)F)C(F)(F)F)n1 | 6.51 µM [rising, partial curve, poor fit] | – |
| Cc1cccc(N=Nc2c(O)[nH]c3ccc(F)cc23)c1 | 10 µM [falling, partial curve] | – |
| CC(=O)NCCc1nc2cc(NC(=O)c3ccccc3Cl)ccc2n1C | 17.8 µM [falling, single point] | – |
| CCOC(=O)c1c2c(c(=S)n(-c3ccccc3)c1N)CCC2 | 0.501 µM [falling, full curve, poor fit] | – |
| Cc1c(NC(=O)CSc2nc3ccccc3s2)c(=O)n(-c2ccccc2)n1C | 6.51 µM [falling, single point] | – |
| O=C(/C=C/c1ccccc1)CC(O)(c1ccccc1)C(F)(F)F (centres undefined) | 29.1 µM [falling, single point] | – |
| CCCCN(C)C(=O)C1CCC(CNS(=O)(=O)c2ccc(Cl)cc2)CC1 (centres undefined) | 3.16 µM [rising, partial curve, poor fit] | – |
| CC(C)Oc1ccc(C(=O)NNC(=O)c2ccccc2C(=O)O)cc1 | 0.461 µM [falling, full curve] | – |
| Clc1ccc(CSc2nnc3ccccn23)c(Cl)c1 | 0.259 µM [rising, full curve, poor fit] | – |
| CC1CN(C(=O)CSc2nc(-c3ccc(F)cc3)cs2)CC(C)O1 (centres undefined) | 0.651 µM [rising, full curve, poor fit] | – |
| C/C(=N\NC(=O)c1cc(C)oc1C)c1ccc2c(c1)OCO2 | 10 µM [falling, partial curve, poor fit] | – |
| Fc1cc(F)nc(NCc2ccccc2)n1 | 35.5 µM [rising, single point] | – |
| CCOC(=O)c1c(Cc2ccc(Cl)cc2)c[nH]c1C | 5.8 µM [rising, partial curve, poor fit] | – |
| CCc1ccc2c(CN3CCC(C(=O)OC)CC3)cc(=O)oc2c1 | 2.24 µM [rising, partial curve, poor fit] | – |
| O=C(CS(=O)(=O)c1ccc2ccccc2c1)N1CCCCCC1 | 5.62 µM [falling, single point] | – |
